Only a part is listed here, and it is no random draw. Active and inactive are the calls of the source.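 The calls were made as follows: active = inhibition above a set limit taken from the earlier primary screen (cut at about 63% in these data); inactive = the rest.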
Experiment: KLF5 expression inhibitors, confirmation, DLD-1 cells, luminescence (AID 1834);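 also: 0% = DMSO wells and 100% = LY294002 at 200 µM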
Conditions: DLD-1 KLF5 promoter firefly luciferase reporter, at 4 µM, stronger effect = higher value

CN[C@H]1C[C@H]2O[C@@](C)([C@H]1OC)n1c3ccccc3c3c4c(c5c6ccccc6n2c5c31)C(=O)NC4
inhibition: active: 115%

Reference: PubChem BioAssay
